# Values quoted from earlier work as cited in patent US9168226B1, “Injectable particle” (priority 2015, dated 2015).
# At least one structure is not confirmed: it was looked up by name or label, or the drawing left a doubt.
# Test system: advanced pancreatic cancer
# Details: combined with gemcitabine compared with gemcitabine alone
compound,measurement,value
"Cc1nc(Nc2ncc(C(=O)Nc3c(C)cccc3Cl)s2)cc(N2CCN(CCO)CC2)n1 [dasatinib, Dasatinib]",survival of patients,did not increase survival
